Measurements reported in the supplement of paper PMC11264405.

How the values were obtained:
Test in all cases: minimum inhibitory concentration
[1] = compound: CC(=O)NC[C@H]1CN(c2ccc(N3CCOCC3)c(F)c2)C(=O)O1 [linezolid]
[2] = compound: CCC[C@@H]1C[C@@H](C(=O)N[C@@H]([C@H]2O[C@H](SC)[C@H](O)[C@@H](O)[C@H]2O)[C@H](C)Cl)N(C)C1 [clindamycin]
[3] = compound: CCc1c(Cl)c(O)c(Cl)c(O)c1C(=O)O[C@H]1[C@H](O)[C@H](OC)[C@H](OC/C2=C\C=C\C[C@H](O)/C(C)=C/[C@H](CC)[C@@H](O[C@@H]3OC(C)(C)[C@@H](OC(=O)C(C)C)[C@H](O)[C@@H]3O)/C(C)=C/C(C)=C/C[C@@H]([C@@H](C)O)OC2=O)O[C@@H]1C [fidaxomicin]
[4] = compound: CN(C)c1cc(NC(=O)CNC(C)(C)C)c(O)c2c1C[C@H]1C[C@H]3[C@H](N(C)C)C(O)=C(C(N)=O)C(=O)[C@@]3(O)C(O)=C1C2=O [tigecycline]
[5] = compound: CN[C@H](CC(C)C)C(=O)N[C@H]1C(=O)N[C@@H](CC(N)=O)C(=O)N[C@H]2C(=O)N[C@H]3C(=O)N[C@H](C(=O)N[C@H](C(=O)O)c4cc(O)cc(O)c4-c4cc3ccc4O)[C@H](O)c3ccc(c(Cl)c3)Oc3cc2cc(c3O[C@@H]2O[C@H](CO)[C@@H](O)[C@H](O)[C@H]2O[C@H]2C[C@](C)(N)[C@H](O)[C@H](C)O2)Oc2ccc(cc2Cl)[C@H]1O [vancomycin]
[6] = compound: CO[C@H]1/C=C/O[C@@]2(C)Oc3c(C)c(O)c4c(O)c(c(/C=N/N5CCN(C)CC5)c(O)c4c3C2=O)NC(=O)/C(C)=C\C=C\[C@H](C)[C@H](O)[C@@H](C)[C@@H](O)[C@@H](C)[C@H](OC(C)=O)[C@@H]1C [rifampicin]
[7] = compound: C[C@@H](O)[C@H]1C(=O)N2C(C(=O)O)=C(SCCNC=N)C[C@H]12 [imipenem]
[8] = compound: C[C@@H](O)[C@H]1C(=O)N2C(C(=O)O)=C(S[C@@H]3CN[C@H](C(=O)N(C)C)C3)[C@H](C)[C@H]12 [meropenem]
[9] = compound: Cc1ncc([N+](=O)[O-])n1CCO [metronidazole]

| Test System | minimum inhibitory concentration [1] | minimum inhibitory concentration [2] | minimum inhibitory concentration [3] | minimum inhibitory concentration [4] | minimum inhibitory concentration [5] | minimum inhibitory concentration [6] | minimum inhibitory concentration [7] | minimum inhibitory concentration [8] | minimum inhibitory concentration [9] |
| --- | --- | --- | --- | --- | --- | --- | --- | --- | --- |
| Clostridioides difficile PCR ribotype 001 isolate #1 (European region: East, country: Slovakia, isolate source: Human, ribotype: 001) | < 0.125 µg/mL | > 128 µg/mL | 0.015 µg/mL | < 0.03 µg/mL | 0.5 µg/mL | < 0.001 µg/mL | 2 µg/mL | 1 µg/mL | 0.25 µg/mL |
| Clostridioides difficile PCR ribotype 001 isolate #2 (European region: East, country: Romania, isolate source: Human, ribotype: 001) | 2 µg/mL | > 128 µg/mL | 0.008 µg/mL | < 0.03 µg/mL | 0.5 µg/mL | < 0.001 µg/mL | 8 µg/mL | 4 µg/mL | 0.5 µg/mL |
| Clostridioides difficile PCR ribotype 001 isolate #3 (European region: East, country: Romania, isolate source: Human, ribotype: 001) | 1 µg/mL |  | 0.004 µg/mL | < 0.03 µg/mL | < 0.125 µg/mL | < 0.001 µg/mL | 8 µg/mL | 4 µg/mL | 1 µg/mL |
| Clostridioides difficile PCR ribotype 001 isolate #4 (European region: East, country: Slovakia, isolate source: Human, ribotype: 001) | 2 µg/mL | > 128 µg/mL | 0.004 µg/mL | < 0.03 µg/mL | < 0.125 µg/mL | < 0.001 µg/mL | 2 µg/mL | 2 µg/mL | 0.5 µg/mL |
| Clostridioides difficile PCR ribotype 001 isolate #5 (European region: North, country: UK, isolate source: Human, ribotype: 001) | 2 µg/mL | 1 µg/mL | 0.015 µg/mL | < 0.03 µg/mL | 0.5 µg/mL | < 0.001 µg/mL | 2 µg/mL | 4 µg/mL | < 0.125 µg/mL |
| Clostridioides difficile PCR ribotype 001 isolate #6 (European region: South, country: Spain, isolate source: Human, ribotype: 001) | 2 µg/mL | 1 µg/mL | 0.008 µg/mL | 0.06 µg/mL | 0.5 µg/mL | < 0.001 µg/mL | 4 µg/mL | 2 µg/mL | 0.25 µg/mL |
| Clostridioides difficile PCR ribotype 001 isolate #7 (European region: South, country: Spain, isolate source: Human, ribotype: 001) | 2 µg/mL | 8 µg/mL | 0.004 µg/mL | 0.06 µg/mL | 0.5 µg/mL | < 0.001 µg/mL | 4 µg/mL | 4 µg/mL | 0.25 µg/mL |
| Clostridioides difficile PCR ribotype 001 isolate #8 (European region: South, country: Spain, isolate source: Human, ribotype: 001) | 2 µg/mL | > 128 µg/mL | 0.008 µg/mL | 0.5 µg/mL | 1 µg/mL | 0.03 µg/mL | 4 µg/mL | 4 µg/mL | < 0.125 µg/mL |
| Clostridioides difficile PCR ribotype 001 isolate #9 (European region: North, country: UK, isolate source: Human, ribotype: 001) | 2 µg/mL | 2 µg/mL | 0.06 µg/mL | < 0.03 µg/mL | 0.5 µg/mL | < 0.001 µg/mL | 2 µg/mL | 2 µg/mL | < 0.125 µg/mL |
| Clostridioides difficile PCR ribotype 001 isolate #10 (European region: South, country: Italy, isolate source: Human, ribotype: 001) | 2 µg/mL | 8 µg/mL | 0.008 µg/mL | 0.06 µg/mL | 1 µg/mL | < 0.001 µg/mL | 4 µg/mL | 4 µg/mL | 0.5 µg/mL |
| Clostridioides difficile PCR ribotype 001 isolate #281 (European region: South, country: Spain, isolate source: Animal, ribotype: 001) | 2 µg/mL | 2 µg/mL | 0.008 µg/mL | 0.06 µg/mL | 0.5 µg/mL | < 0.001 µg/mL | 2 µg/mL | 4 µg/mL | < 0.125 µg/mL |
| Clostridioides difficile PCR ribotype 002 isolate #11 (European region: East, country: Poland, isolate source: Human, ribotype: 002) | 2 µg/mL | 16 µg/mL | 0.03 µg/mL | 0.06 µg/mL | 0.5 µg/mL | < 0.001 µg/mL | 2 µg/mL | 2 µg/mL | < 0.125 µg/mL |
| Clostridioides difficile PCR ribotype 002 isolate #12 (European region: North, country: Sweden, isolate source: Human, ribotype: 002) | 1 µg/mL | 16 µg/mL | 0.25 µg/mL | < 0.03 µg/mL | 2 µg/mL | < 0.001 µg/mL | 4 µg/mL | 4 µg/mL | 8 µg/mL |
| Clostridioides difficile PCR ribotype 002 isolate #13 (European region: North, country: Sweden, isolate source: Human, ribotype: 002) | 2 µg/mL | 16 µg/mL | 0.015 µg/mL | < 0.03 µg/mL | 2 µg/mL | < 0.001 µg/mL | 4 µg/mL | 4 µg/mL | < 0.125 µg/mL |
| Clostridioides difficile PCR ribotype 002 isolate #14 (European region: West, country: France, isolate source: Human, ribotype: 002) | 2 µg/mL | 16 µg/mL | 0.06 µg/mL | < 0.03 µg/mL | 1 µg/mL | < 0.001 µg/mL | 2 µg/mL | 4 µg/mL | < 0.125 µg/mL |
| Clostridioides difficile PCR ribotype 002 isolate #15 (European region: North, country: UK, isolate source: Human, ribotype: 002) | 2 µg/mL | 16 µg/mL | 0.03 µg/mL | < 0.03 µg/mL | 2 µg/mL | < 0.001 µg/mL | 1 µg/mL | 8 µg/mL | < 0.125 µg/mL |
| Clostridioides difficile PCR ribotype 002 isolate #16 (European region: North, country: UK, isolate source: Human, ribotype: 002) | 2 µg/mL | 0.25 µg/mL | 0.06 µg/mL | < 0.03 µg/mL | 0.25 µg/mL | < 0.001 µg/mL | 2 µg/mL | 4 µg/mL | < 0.125 µg/mL |
| Clostridioides difficile PCR ribotype 002 isolate #17 (European region: South, country: Spain, isolate source: Human, ribotype: 002) | 2 µg/mL | 32 µg/mL | 0.06 µg/mL | 0.06 µg/mL | 0.5 µg/mL | < 0.001 µg/mL | 2 µg/mL | 2 µg/mL | 0.25 µg/mL |
| Clostridioides difficile PCR ribotype 002 isolate #18 (European region: North, country: UK, isolate source: Human, ribotype: 002) | 2 µg/mL | 8 µg/mL | 0.03 µg/mL | < 0.03 µg/mL | 1 µg/mL | < 0.001 µg/mL | 2 µg/mL | 4 µg/mL | < 0.125 µg/mL |
| Clostridioides difficile PCR ribotype 002 isolate #19 (European region: North, country: UK, isolate source: Human, ribotype: 002) | 2 µg/mL | 2 µg/mL | 0.03 µg/mL | < 0.03 µg/mL | 0.5 µg/mL | < 0.001 µg/mL | 2 µg/mL | 2 µg/mL | < 0.125 µg/mL |
| Clostridioides difficile PCR ribotype 002 isolate #20 (European region: North, country: UK, isolate source: Human, ribotype: 002) | 0.25 µg/mL | 2 µg/mL | 0.03 µg/mL | < 0.03 µg/mL | 0.5 µg/mL | < 0.001 µg/mL | 2 µg/mL | 2 µg/mL | < 0.125 µg/mL |
| Clostridioides difficile PCR ribotype 002 isolate #283 (European region: West, country: Netherlands, isolate source: Animal, ribotype: 002) | 2 µg/mL | 16 µg/mL | 0.06 µg/mL | < 0.03 µg/mL | 0.5 µg/mL | < 0.001 µg/mL |  | 4 µg/mL | < 0.125 µg/mL |
| Clostridioides difficile PCR ribotype 014 isolate #74 (European region: West, country: Netherlands, isolate source: Human, ribotype: 014) |  | 8 µg/mL | 0.03 µg/mL | < 0.03 µg/mL | 0.5 µg/mL | < 0.001 µg/mL | 1 µg/mL | 4 µg/mL | 0.25 µg/mL |
| Clostridioides difficile PCR ribotype 014 isolate #75 (European region: South, country: Italy, isolate source: Human, ribotype: 014) |  | 16 µg/mL | 0.03 µg/mL | 0.06 µg/mL | 0.5 µg/mL | < 0.001 µg/mL | 1 µg/mL | 2 µg/mL | < 0.125 µg/mL |
| Clostridioides difficile PCR ribotype 027 isolate #117 (European region: East, country: Poland, isolate source: Human, ribotype: 027) | 2 µg/mL |  | 0.03 µg/mL | < 0.03 µg/mL | 1 µg/mL | > 32 µg/mL | 4 µg/mL | 4 µg/mL | 2 µg/mL |
| Clostridioides difficile PCR ribotype 027 isolate #126 (European region: East, country: Romania, isolate source: Human, ribotype: 027) | 0.25 µg/mL | < 0.125 µg/mL | 0.03 µg/mL |  | 0.5 µg/mL | < 0.001 µg/mL | 4 µg/mL | 4 µg/mL | 0.5 µg/mL |
| Clostridioides difficile PCR ribotype 078 isolate #181 (European region: South, country: Spain, isolate source: Human, ribotype: 078) |  | 16 µg/mL | 0.03 µg/mL | 0.06 µg/mL | 1 µg/mL | < 0.001 µg/mL | 2 µg/mL | 4 µg/mL | 0.25 µg/mL |

Pulled one by one from the list above, 2 records:

| Test System | minimum inhibitory concentration [1] | minimum inhibitory concentration [2] | minimum inhibitory concentration [3] | minimum inhibitory concentration [4] | minimum inhibitory concentration [5] | minimum inhibitory concentration [6] | minimum inhibitory concentration [7] | minimum inhibitory concentration [8] | minimum inhibitory concentration [9] |
| --- | --- | --- | --- | --- | --- | --- | --- | --- | --- |
| Clostridioides difficile PCR ribotype 001 isolate #281 (European region: South, country: Spain, isolate source: Animal, ribotype: 001) | 2 µg/mL | 2 µg/mL | 0.008 µg/mL | 0.06 µg/mL | 0.5 µg/mL | < 0.001 µg/mL | 2 µg/mL | 4 µg/mL | < 0.125 µg/mL |
| Clostridioides difficile PCR ribotype 002 isolate #16 (European region: North, country: UK, isolate source: Human, ribotype: 002) | 2 µg/mL | 0.25 µg/mL | 0.06 µg/mL | < 0.03 µg/mL | 0.25 µg/mL | < 0.001 µg/mL | 2 µg/mL | 4 µg/mL | < 0.125 µg/mL |
